PubChem BioAssay AID504804 | Drosophila RNAi Screening Center, 2011

Assay: 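Fly genes whose loss lessens doxorubicin-driven cell death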 (primary screen)
System: Drosophila Kc cells
Reagents: long dsRNA against Drosophila genes, 0.5 µg dsRNA per well
Timing: 96 h (48 h knock-down, then 48 h drug)
Conditions: doxorubicin 5 µg/ml for 48 h, added 48 h after dsRNA
Detection: 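Luminescent ATP counts per replicate, not normalised, reflecting viable cells after 48 h dsRNA knock-down followed by 48 h of 5 µg/ml doxorubicin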
Reading the numbers: raw ATP luminescence: higher = more viable cells, protection from doxorubicin
Call rule: 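Active when both duplicate wells lie at least 2 SD above the plate mean and protection is confirmed by rescreening and independent dsRNAs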
The deposit covers about 19,000 reagents; below is a random part of those with a known target gene and a result. In the full data, 47 (0.25%) were called active. 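Signals are raw, not normalised; exact z-scores behind calls not deposited; actives needed confirmation, so some wells reaching 2 SD are inactive.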 No sequences are given here.

gene	amplicon	raw ATP luminescence, replicate 1	raw ATP luminescence, replicate 2	call
Tpr2 (Tetratricopeptide repeat protein 2)	DRSC03461	1.05e5	80913	inactive
CG12069	DRSC14470	42570	33070	inactive
CG16719	DRSC10222	43767	30413	inactive
St2 (Sulfotransferase 2)	DRSC15142	60267	56610	inactive
mats (mob as tumor suppressor)	DRSC13562	2.44e5	2.29e5	inactive
mats (mob as tumor suppressor)	DRSC14702	48957	47987	inactive
Mvb12 (Multivesicular body subunit 12)	DRSC20027	3.13e5	3.05e5	inactive
Eig71Eb (Ecdysone-induced gene 71Eb)	DRSC11149	75413	62627	inactive
Cog2 (Component of oligomeric golgi complex 2)	DRSC16987	91430	77990	inactive
alpha-Est4 (alpha-Esterase-4)	DRSC12616	58817	60920	inactive
peb (pebbled)	DRSC18817	27620	28470	inactive
TpnC4 (Troponin C isoform 4)	DRSC04856	49460	58517	inactive
Papss (PAPS synthetase)	DRSC11246	25303	21080	inactive
RhoGEF4 (Rho guanine nucleotide exchange factor 4)	DRSC11011	40697	44210	inactive
Tnpo-SR (Transportin-Serine/Arginine rich)	DRSC00546	79063	64490	inactive
CG14669	DRSC12065	66963	24953	inactive
CG14669	DRSC12067	77797	60377	inactive
CG14669	DRSC12068	69663	66540	inactive
CG14669	DRSC12255	68217	56940	inactive
Gbp2 (Growth-blocking peptide 2)	DRSC06069	75223	65963	inactive
CG12301	DRSC09875	23247	23453	inactive
Setd3 (SET domain containing 3)	DRSC17840	36800	44250	inactive
Setd3 (SET domain containing 3)	DRSC18269	44050	42780	inactive
Rab11	DRSC16809	41130	47540	inactive
mRpS10 (mitochondrial ribosomal protein S10)	DRSC15557	72890	65870	inactive
bisc (biscotti)	DRSC04083	72160	61717	inactive
Cpr50Ca (Cuticular protein 50Ca)	DRSC05454	98190	1.14e5	inactive
nom (numerous disordered muscles)	DRSC16389	73707	75537	inactive
FIG4 (FIG4 phosphoinositide 5-phosphatase)	DRSC00515	1.08e5	57553	inactive
Ciz1 (Ciz1 zinc finger protein)	DRSC09675	67350	61470	inactive
CG32148	DRSC09338	91153	83290	inactive
TBC1d7 (TBC1 domain family member 7)	DRSC15985	93740	64110	inactive
CG17475	DRSC15238	70720	75500	inactive
CG12551 (retired record)	DRSC04857	63277	53327	inactive
CG12551 (retired record)	DRSC04864	60883	48683	inactive
fax (failed axon connections)	DRSC11345	21297	20057	inactive
mtt (mangetout)	DRSC05106	43320	40873	inactive
mtt (mangetout)	DRSC05107	76660	90603	inactive
mtt (mangetout)	DRSC06753	37490	97230	inactive
mtt (mangetout)	DRSC07235	41277	68437	inactive
CAH16 (Carbonic anhydrase 16)	DRSC15371	62470	62480	inactive
Mic26-27 (MICOS subunit 26/27)	DRSC15913	49003	48540	inactive
Gyg (Glycogenin)	DRSC03850	61860	53140	inactive
Gyg (Glycogenin)	DRSC04556	51487	49503	inactive
CG14673 (retired record)	DRSC12259	61893	61783	inactive
CG32444	DRSC11677	24867	18050	inactive
CG14820	DRSC10191	74277	74163	inactive

The list goes on, starting with the last 7 of the part before.
gene	amplicon	raw ATP luminescence, replicate 1	raw ATP luminescence, replicate 2	call
CAH16 (Carbonic anhydrase 16)	DRSC15371	62470	62480	inactive
Mic26-27 (MICOS subunit 26/27)	DRSC15913	49003	48540	inactive
Gyg (Glycogenin)	DRSC03850	61860	53140	inactive
Gyg (Glycogenin)	DRSC04556	51487	49503	inactive
CG14673 (retired record)	DRSC12259	61893	61783	inactive
CG32444	DRSC11677	24867	18050	inactive
CG14820	DRSC10191	74277	74163	inactive
Hsp70Bc (Heat shock protein 70 Bc)	DRSC16053	54957	45810	inactive
Syx1A (Syntaxin 1A)	DRSC15359	57990	56720	inactive
CG15861	DRSC04274	50913	44180	inactive
CG15579	DRSC18067	37750	49740	inactive
CG4452	DRSC10422	32557	36473	inactive
beat-IIa (beaten path IIa)	DRSC14813	68060	82500	inactive
beat-IIa (beaten path IIa)	DRSC14814	90560	73050	inactive
Atxn7 (Ataxin 7)	DRSC00726	92307	64567	inactive
CG32523	DRSC20510	3.20e5	3.49e5	inactive
dpr8 (defective proboscis extension response 8)	DRSC19406	3.61e5	3.35e5	inactive
dpr8 (defective proboscis extension response 8)	DRSC19600	3.35e5	3.31e5	inactive
dpr8 (defective proboscis extension response 8)	DRSC19938	3.77e5	3.54e5	inactive
dpr8 (defective proboscis extension response 8)	DRSC19939	3.85e5	3.63e5	inactive
O-fut1 (O-fucosyltransferase 1)	DRSC06138	74747	63070	inactive
vri (vrille)	DRSC03633	13953	16567	inactive
Rga (Regena)	DRSC12364	58090	61440	inactive
CG8765	DRSC11041	34177	38867	inactive
Ucp4B (Uncoupling protein 4B)	DRSC02665	32913	40077	inactive
CG13484	DRSC10026	49913	41093	inactive
Ir94e (Ionotropic receptor 94e)	DRSC15229	69440	72480	inactive
Nap1 (Nucleosome assembly protein 1)	DRSC04626	68950	61820	inactive
TotB (Turandot B)	DRSC15842	59100	91240	inactive
EndoG (Endonuclease G)	DRSC07292	71043	64677	inactive
Hr38 (Hormone receptor-like in 38)	DRSC03345	32853	33567	inactive
Cda4 (Chitin deacetylase-like 4)	DRSC20623	3.76e5	3.38e5	inactive
Cda4 (Chitin deacetylase-like 4)	DRSC20641	3.14e5	3.42e5	inactive
Cda4 (Chitin deacetylase-like 4)	DRSC20642	3.59e5	3.44e5	inactive
Fib (Fibrillarin)	DRSC04614	38017	55717	inactive
CG12923	DRSC06237	37277	86563	inactive
FRG1 (FSHD region gene 1)	DRSC10648	65760	51930	inactive
CG16903	DRSC18561	58190	60470	inactive
CG18789	DRSC02696	58403	91177	inactive
mei-38 (meiotic 38)	DRSC18564	42260	50370	inactive
CG15642	DRSC19678	3.15e5	3.10e5	inactive
Cht5 (Chitinase 5)	DRSC16470	53233	36430	inactive
w-cup (world cup)	DRSC03048	38533	84617	inactive
CG5068	DRSC10476	37273	38030	inactive
